Measurements from patent publication US20080311575A1, “Modulation of Muci-Dependent Anti-Estrogen Resistance” (priority 2005, published 2008).
No constants are given. Whether binding was seen depends on the method and setting. Binding seen in cells or lysates may run through a third protein. Some binding calls cover weakened binding; strength is not graded here.

Protein sequences, listed by entry. Tags and fused reporters are not part of them. Lines headed by an entry give the natural chain unless they say otherwise; changes in a name come on top.
UniProt P03372: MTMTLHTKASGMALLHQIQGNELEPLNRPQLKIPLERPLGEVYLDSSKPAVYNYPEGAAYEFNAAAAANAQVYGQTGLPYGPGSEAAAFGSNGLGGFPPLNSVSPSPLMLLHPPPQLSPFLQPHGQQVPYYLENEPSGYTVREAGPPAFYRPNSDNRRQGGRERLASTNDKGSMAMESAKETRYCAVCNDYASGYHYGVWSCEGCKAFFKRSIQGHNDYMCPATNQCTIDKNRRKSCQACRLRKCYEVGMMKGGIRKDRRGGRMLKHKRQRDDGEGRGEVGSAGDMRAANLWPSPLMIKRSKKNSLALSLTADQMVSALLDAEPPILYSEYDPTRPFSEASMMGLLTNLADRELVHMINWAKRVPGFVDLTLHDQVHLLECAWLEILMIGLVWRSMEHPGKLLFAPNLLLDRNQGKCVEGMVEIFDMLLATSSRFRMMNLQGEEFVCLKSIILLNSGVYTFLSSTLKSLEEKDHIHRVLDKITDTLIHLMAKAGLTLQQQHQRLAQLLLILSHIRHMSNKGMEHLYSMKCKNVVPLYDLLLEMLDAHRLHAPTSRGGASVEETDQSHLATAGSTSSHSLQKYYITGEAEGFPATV
UniProt P15941: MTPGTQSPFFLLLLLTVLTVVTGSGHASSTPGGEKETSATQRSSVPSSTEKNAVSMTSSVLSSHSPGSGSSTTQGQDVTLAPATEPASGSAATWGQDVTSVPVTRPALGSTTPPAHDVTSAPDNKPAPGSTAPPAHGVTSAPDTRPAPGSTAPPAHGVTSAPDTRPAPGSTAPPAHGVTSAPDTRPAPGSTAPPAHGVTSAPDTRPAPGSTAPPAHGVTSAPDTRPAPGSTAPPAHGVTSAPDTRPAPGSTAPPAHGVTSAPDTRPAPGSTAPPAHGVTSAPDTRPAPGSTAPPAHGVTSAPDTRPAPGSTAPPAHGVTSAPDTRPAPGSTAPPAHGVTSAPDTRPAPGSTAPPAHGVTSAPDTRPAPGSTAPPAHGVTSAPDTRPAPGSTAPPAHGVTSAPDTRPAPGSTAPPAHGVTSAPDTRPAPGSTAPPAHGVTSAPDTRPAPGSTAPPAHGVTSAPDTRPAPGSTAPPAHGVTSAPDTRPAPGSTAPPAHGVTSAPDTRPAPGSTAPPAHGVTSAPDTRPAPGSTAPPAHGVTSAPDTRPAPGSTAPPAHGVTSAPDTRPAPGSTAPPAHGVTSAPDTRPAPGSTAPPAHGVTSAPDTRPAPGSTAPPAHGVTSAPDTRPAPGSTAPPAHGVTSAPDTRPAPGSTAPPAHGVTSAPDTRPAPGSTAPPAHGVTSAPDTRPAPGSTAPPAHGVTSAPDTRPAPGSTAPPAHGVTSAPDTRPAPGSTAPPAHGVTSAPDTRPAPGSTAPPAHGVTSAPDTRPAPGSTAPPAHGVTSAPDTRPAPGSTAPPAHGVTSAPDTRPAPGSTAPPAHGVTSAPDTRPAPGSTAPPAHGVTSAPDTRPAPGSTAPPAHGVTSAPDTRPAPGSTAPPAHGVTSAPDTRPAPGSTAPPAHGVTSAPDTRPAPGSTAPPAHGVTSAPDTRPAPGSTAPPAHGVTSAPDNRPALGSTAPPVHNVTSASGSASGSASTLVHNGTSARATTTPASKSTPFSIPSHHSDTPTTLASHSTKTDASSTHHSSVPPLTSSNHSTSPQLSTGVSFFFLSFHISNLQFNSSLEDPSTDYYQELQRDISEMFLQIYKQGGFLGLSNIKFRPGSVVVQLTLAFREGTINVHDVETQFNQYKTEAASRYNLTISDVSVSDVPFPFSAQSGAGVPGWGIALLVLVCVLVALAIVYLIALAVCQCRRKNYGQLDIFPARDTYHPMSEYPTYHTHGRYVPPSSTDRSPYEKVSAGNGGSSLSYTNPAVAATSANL

Biological target: estrogen receptor α (ERα), expressed in cells (human) (UniProt P03372)
Assay: coimmunoprecipitation from COS-1 cells coexpressing Myc-MUC1-CD and ERα (anti-ERα IP with anti-MUC1-CD blot; reciprocal anti-Myc IP with anti-ERα blot); E2 increased binding

binding: binds
Substance: Myc-tagged MUC1 cytoplasmic domain (Myc-MUC1-CD) (from UniProt P15941 1184-1255)
